Results published in US6291488A, “Preventing protozoal infections” (Glaxo Wellcome Inc., priority 1992, dated 2001).
Values joined by “and” are separate entries in the source; they are usually repeats but may differ in a detail not shown here. Identical values can stand only once. At least one read-out could not be matched to a standard name with certainty.

Test system: P. falciparum W-2 (multi-drug resistant W-2 clone)
Assay: In vitro drug combination sensitivity (Desjardins hypoxanthine incorporation), W-2 clone
Type: cell-based
Conditions: drug combined with compound of Example 1, positive = synergistic, negative = antagonism, 0 = additive
Procedure: Antimalarial activity in this system is assessed by inhibition of radiolabelled hypoxanthine incorporation into parasites by graded concentrations of drugs.
The drugs tested and their solvents are listed below:
In order to study drug combinations, drug solutions at starting concentrations were combined in various ratios and 1:5,1:2,2:1 and 5:1). […] Serial 1:3 dilutions of the drugs with media were made to fill the 96-well microtitre plate using a 12-channel pipetter. To evaluate drugs classified as dihydrofolic acid reductase (DHFR) inhibitors, modified culture medium was used which contained only physiologic concentrations of folic acid and PABA.
Individual IC50 s were calculated using the "MINSQ" program from Micromath Scientific Software. Each set of paired data was fitted to the hyperbolic tangent function used by Desjardins.
An isobologram was constructed by fitting the data to the equation:
Y1-[Xi /(Xi +e^I *(1-Xi))]
I=interaction parameter indicating degree of reversal
Positive values of I indicated a synergistic combination, negative values indicated antagonism and I=O indicated additive interaction. […]

Compound	I (interaction parameter)
Cc1nc(C)c(Cl)c(O)c1Cl [Clopidol]	2.38 and 2.65
[H]/N=C(\N/C(=N/[H])Nc1ccc(Cl)cc1)NC(C)C [Proguanil]	2.43 and 2.88
